These are yes or no findings as the source states them, for the method shown. For part of these data: In cells and extracts the contact can be indirect. Some binding calls cover weakened binding; strength is not graded here.
How the values were obtained:
[1] = target: cytoplasmic domain of the Vpu protein (Vpuc), amino acid residues 28 to 81 (HIV-1) (UniProt P05923); experiment: yeast two-hybrid with deletion mutants
[2] = target: cytoplasmic domain of the Vpu protein (Vpuc), amino acid residues 28 to 81 (HIV-1) (UniProt P05923); experiment: yeast two-hybrid (His3 and LacZ reporters)
[3] = target: cytoplasmic domain of the Vpu protein (Vpuc), amino acid residues 28 to 81 (HIV-1) (UniProt P05923); experiment: yeast two-hybrid (βTrCP+Vpuc)
[4] = target: Vpu protein (translated in vitro in rabbit reticulocyte lysate, FIG. 3) (HIV-1) (UniProt P05923); experiment: co-immunoprecipitation after cotranslation in rabbit reticulocyte lysate
[5] = target: cytoplasmic domain of the Vpu protein (Vpuc), amino acid residues 28 to 81 (HIV-1) (UniProt P05923); experiment: yeast two-hybrid, FIG. 1
[6] = target: cytoplasmic domain of the Vpu protein (Vpuc), amino acid residues 28 to 81 (HIV-1) (UniProt P05923); experiment: yeast two-hybrid
[7] = target: Vpu protein (translated in vitro in rabbit reticulocyte lysate, FIG. 3) (HIV-1) (UniProt P05923); experiment: co-immunoprecipitation, 15% SDS-PAGE gel

Amino acid sequences for entries named in this document (tags omitted). A change or cut given only in a name is not applied to a line headed by its entry. Residues count along the entry.
UniProt P05923, residues 28-81: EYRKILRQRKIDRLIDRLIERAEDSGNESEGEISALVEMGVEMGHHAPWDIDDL
UniProt Q9Y297: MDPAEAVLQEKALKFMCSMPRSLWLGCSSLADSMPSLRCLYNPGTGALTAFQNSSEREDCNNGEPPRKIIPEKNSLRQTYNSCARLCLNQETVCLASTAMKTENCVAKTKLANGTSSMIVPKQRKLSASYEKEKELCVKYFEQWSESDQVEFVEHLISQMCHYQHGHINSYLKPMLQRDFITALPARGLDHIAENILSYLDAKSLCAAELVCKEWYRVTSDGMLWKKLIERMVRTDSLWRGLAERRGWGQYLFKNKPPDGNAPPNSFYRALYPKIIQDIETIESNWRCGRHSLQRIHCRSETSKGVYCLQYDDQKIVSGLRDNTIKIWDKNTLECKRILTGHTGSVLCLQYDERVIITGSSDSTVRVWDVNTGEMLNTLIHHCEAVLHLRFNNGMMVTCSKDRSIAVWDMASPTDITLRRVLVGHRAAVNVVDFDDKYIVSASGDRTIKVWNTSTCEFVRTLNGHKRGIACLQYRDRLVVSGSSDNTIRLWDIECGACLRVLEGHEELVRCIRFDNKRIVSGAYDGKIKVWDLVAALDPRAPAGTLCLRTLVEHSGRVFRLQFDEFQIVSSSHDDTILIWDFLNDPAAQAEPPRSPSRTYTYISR

Measured: binding

VBP1 (C-terminal region of the h-βTrCP protein, amino acid residues 251 to 569) (from UniProt Q9Y297 287-605)
binds: [1] | [2]

human βTrCP protein (h-βTrCP) (from UniProt Q9Y297 1-605)
binds: all assays above

— US6730486 (INSTITUT NATIONAL DE LA SANTE ET DE LA RECHERCHE MEDICALE, dated 2004)
